In PMC4495292:
Results are given in words; binding and its absence hold for the method and conditions named. For some assays here: Binding calls can cover weak binding; strength is not graded here. Sequences can lack the tags named with a protein.

What was measured:
[1] = target: T1, Ser37Ala/Thr64Ala-FAM122A-GFP (human) (UniProt Q96E09); assay: condition: only cells pre-treated with H89 (30 µM for 30 min) before forskolin; far-Western, overlay or dot blot; HEK293 cells serum starved 10 h, pre-treated with H89 (30 µM, 30 min), then forskolin (20 µM, 30 min); immunoprecipitated GFP-tagged protein probed with 14-3-3s (overlay); both purified
T1 sequence (chain, phosphoSer62 after forskolin, likely by PKA (the paper's conclusion)): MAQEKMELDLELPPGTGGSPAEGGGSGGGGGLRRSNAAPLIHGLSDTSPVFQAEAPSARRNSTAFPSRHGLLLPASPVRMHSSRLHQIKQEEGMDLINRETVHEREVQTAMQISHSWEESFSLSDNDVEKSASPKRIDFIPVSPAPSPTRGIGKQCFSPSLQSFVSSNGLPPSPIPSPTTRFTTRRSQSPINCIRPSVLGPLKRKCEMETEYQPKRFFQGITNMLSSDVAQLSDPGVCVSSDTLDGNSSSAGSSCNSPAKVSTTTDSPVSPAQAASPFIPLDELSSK

[2] = target: T1, Ser37Ala/Thr64Ala-FAM122A-GFP (human); assay: far-Western, overlay or dot blot; GFP-tagged proteins isolated with GFP-Trap from lysates of transfected HEK293 cells and probed with 14-3-3s (overlay); cells in medium with 10% serum, with or without 100 nM calyculin A; in Fig. 2D serum starved 10 h, then serum (10%, 30 min) or forskolin (20 µM, 30 min); both purified

binding [1]: no binding | binding [2]: binds
Substance: 14-3-3s used as the probe in Far-Western overlays
